Source: PMC6429432

Biological target: TaGAPCp1 fused to the N-terminal fragment of yellow fluorescent protein (pSPYNE-TaGAPCp1) (wheat (Triticum aestivum, Chinese Spring))
Test: split reporter; BiFC: pSPYNE-TaGAPCp1 and pSPYCE-Cyt b6f co-infiltrated in tobacco by Agrobacterium, leaf protoplasts, YFP fluorescence (500-570 nm) by confocal laser scanning microscopy

binding: binds
B1: Cytochrome b6-f complex iron-sulfur subunit (Cyt b6f) fused to the C-terminal fragment of yellow fluorescent protein (pSPYCE-Cyt b6f) (protein, UniProt Q7X9A6 50-222)
chain: ADRVPDMSKRELMNLLLLGAISLPTFGMLVPYGSFLVPAGSGSNAGGVAAKDKLGNDILVEDWLKTHGPNDRTLAQGLKGDPTYLVVESDKTLATYGINAVCTHLGCVVPWNAAENKFLCPCHGSQYNNQGKVVRGPAPLSLALVHADVDDGKVVFVPWVETDFRTGDNPWWK

Results are given in words; binding and its absence hold for the method and conditions named. Binding seen in cells or lysates may run through a third protein. Binding can be weak; no strength is given. Sequences can lack the tags named with a protein.
